The list shows a part of the results. Further columns of the screen follow, without active or inactive calls. Most of these compounds were active or inconclusive in the main read-out, so they are no random draw. Words in brackets tell the shape of the fitted curve; partial curves, single points and poor fits give uncertain potencies.
Test: qHTS Assay for Lipid Storage Modulators in Drosophila S3 Cells;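 on cell number change: cells counted by Cell Tracker Red CMTPX staining in the red channel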
Settings: BODIPY lipid droplet fluorescence, 18-24 h; for cell number change: measured here: cell count max response, cells fed with added oleic acid
Method in brief: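 Drosophila S3 cells loaded with oleic acid (400 uM, as added) and compounds at several concentrations; lipid droplets imaged by 488-nm laser-scanning cytometry, 500–530 nm intensity and object ratio to cell channel. Percent activity normalized to 20 uM Triacsin C.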

[1] = measured here: cell number channel AC50, cells fed with added oleic acid
[2] = measured here: lipid fluorescence (Fed channel) AC50, cells fed with added oleic acid

Cc1ccc(-c2nn(-c3ccccc3)cc2/C=N/NS(=O)(=O)c2ccccc2)cc1
cell number change: 31.5%
AC50 [1]: 32.6 µM [rising, single point]

COc1ccc(NS(=O)(=O)c2cc(NC(=O)C3CC3)ccc2N2CCCCC2)cc1
AC50 [1]: 3.66 µM [rising, single point]

O=C(NNc1c2ccccc2nc2ccccc12)c1ccc(O)cc1
AC50 [2]: 7.31 µM [falling, partial curve]

COc1ccccc1OCc1ccc(C(=O)N2N=C(C(F)F)CC2(O)C(F)F)o1 (stereo not drawn)
cell number change: 9.59%

O=C(Cc1ccccc1)Nc1ccccc1C(=O)O
cell number change: -2.36%

Cc1ccccc1N1C(S)=C(C#N)C(=O)NC12CCCCC2
cell number change: -49.8%
AC50 [1]: 18.4 µM [falling, single point]
AC50 [2]: 29.1 µM [falling, single point]

C#CCOCCOCCOCCNc1nc(OC)nc(N2CCN(C(=O)[C@H](CCC(=O)O)n3cc(C(N)CO)nn3)CC2)n1 (stereo partly drawn)
cell number change: -51.4%
AC50 [1]: 13 µM [falling, partial curve, poor fit]
AC50 [2]: 29.1 µM [falling, single point]

O=C(NCCCn1ccnc1)C(=O)NCC1OCCN1S(=O)(=O)c1ccc(F)cc1 (stereo not drawn)
cell number change: 36.5%
AC50 [2]: 0.116 µM [falling, partial curve, poor fit]

CN(CC(=O)Nc1ccc(Cl)cc1)C(=O)CCc1ccccc1
cell number change: -21.4%

COc1ccc(C(=O)NCc2csc(C(C)C)n2)cc1OC1CCN(C(C)=O)CC1
cell number change: 12.2%
AC50 [2]: 14.6 µM [rising, partial curve, poor fit]

CC(Oc1cccc(Cl)c1)C(=O)Nc1ccc(N2CCOCC2)cc1N1CCOCC1 (stereo not drawn)
cell number change: 6.52%
AC50 [1]: 2.06 µM [rising, partial curve]
AC50 [2]: 2.06 µM [rising, partial curve]

CC1CN(C(=O)Nc2ccc(F)cc2F)CC(C)O1 (stereo not drawn)
cell number change: 20.7%
AC50 [2]: 4.11 µM [rising, full curve, poor fit]

COc1cccc(S(=O)(=O)Nc2ccc3c(c2)OCCO3)c1
cell number change: -3.16%

Cc1cc(C)n(CC(O)CN(c2ccccc2)S(=O)(=O)c2ccc3ccccc3c2)n1 (stereo not drawn)
cell number change: -1.59%
AC50 [1]: 0.92 µM [rising, partial curve, poor fit]

COCc1cc(=O)n2[nH]c(C(F)(F)F)nc2n1
cell number change: -60.8%
AC50 [1]: 3.66 µM [falling, full curve]
AC50 [2]: 1.3 µM [falling, full curve, poor fit]

CCN(CC)CCNCC(O)(c1ccc(Cl)cc1)c1ccc(Cl)cc1
cell number change: 3.93%
AC50 [2]: 1.64 µM [falling, partial curve, poor fit]

CCOC(=O)C(CCC(=O)O)(CCC(C)C)c1csc(N)n1 (stereo not drawn)
cell number change: -11.8%
AC50 [1]: 6.51 µM [falling, single point]

Cc1nn(C)c(C)c1CN(Cc1nc(CCC(C)C)no1)C(C)C
cell number change: -56.1%
AC50 [1]: 4.11 µM [falling, full curve]
AC50 [2]: 5.17 µM [falling, full curve]

OC1CCN(Cc2cccc(Oc3ccccc3)c2)CC1
cell number change: 9.75%
AC50 [1]: 0.58 µM [rising, full curve, poor fit]
AC50 [2]: 14.6 µM [rising, partial curve]

CC1CCN(CC(=O)Nc2ccc3c(c2)OCO3)CC1
cell number change: -21.3%

O=C(CN1CCN(S(=O)(=O)c2ccc(Br)cc2)CC1)N/N=C/c1ccco1
AC50 [1]: 4.61 µM [rising, single point]
AC50 [2]: 0.82 µM [falling, partial curve, poor fit]

CC(C)[C@H](NC(=O)c1ccc(Cl)c([N+](=O)[O-])c1)C(=O)NCc1ccc(Cl)cc1Cl
cell number change: 12.1%
AC50 [2]: 29.1 µM [rising, partial curve, poor fit]

CC(C)CCN(C(=O)c1csnn1)C(C(=O)NC1CCCC1)c1ccc(F)cc1 (stereo not drawn)
cell number change: -26.9%

O=C(c1ccc(F)cc1)C1CCN(Cc2cn[nH]c2-c2ccc(F)cc2)CC1
cell number change: -2.65%
AC50 [2]: 6.51 µM [falling, single point]

COc1ccc(C(c2nnnn2C2CCCC2)N2CCC(C)CC2)c(OC)c1 (stereo not drawn)
AC50 [1]: 0.164 µM [falling, full curve, poor fit]
AC50 [2]: 6.51 µM [rising, single point]

O=C(NCCc1ccc(Cl)cc1)c1ccc2[nH]c(=O)c(=O)[nH]c2c1
cell number change: 3.44%
AC50 [2]: 16.4 µM [rising, single point]

O=C(NCC1CCCO1)C(c1ccncc1)N(Cc1cccs1)C(=O)Cn1nnc(-c2ccc(F)cc2)n1 (stereo not drawn)
cell number change: 1.02%
AC50 [2]: 3.66 µM [falling, partial curve, poor fit]

CCCN(CCC)S(=O)(=O)c1ccc(NC(=O)c2cc(C(=O)OC)cc([N+](=O)[O-])c2)cc1
cell number change: 29.2%

Cc1cccc(OCC(=O)N(C)c2c(N)n(Cc3ccccc3)c(=O)[nH]c2=O)c1C
cell number change: -8.23%
AC50 [2]: 1.84 µM [falling, partial curve]

Cc1cc(NS(=O)(=O)c2ccc(C3CCCCC3)cc2)no1
cell number change: -6.66%
AC50 [2]: 0.651 µM [falling, single point]

Cc1cc(NC(=O)CSc2nnc(-c3ccoc3C)o2)no1
cell number change: 2.15%
AC50 [2]: 29.1 µM [falling, single point]

O=C(Nc1ccccc1F)c1ccc(CN2CCc3ccccc3C2)cc1
AC50 [2]: 29.1 µM [rising, single point]

Cn1ccnc1SCC(=O)c1ccc(O)cc1
cell number change: -14.7%
AC50 [2]: 0.13 µM [falling, full curve, poor fit]

CCC(=O)NC(c1ccc([N+](=O)[O-])cc1)c1c(O)ccc2ccccc12 (stereo not drawn)
cell number change: -72.7%
AC50 [1]: 29.1 µM [falling, single point]
AC50 [2]: 29.1 µM [falling, single point]

NS(=O)(=O)c1cccc(C(=O)NC2CCSc3ccccc32)c1 (stereo not drawn)
cell number change: 23.7%
AC50 [2]: 3.55 µM [rising, partial curve]

CCOC(=O)c1cc2c(=O)n3cccc(C)c3nc2n(C)c1=N
cell number change: -11.6%

CSc1sc(C)cc1C=O
cell number change: -31.1%
AC50 [2]: 3.26 µM [falling, partial curve]

O=C(COC(=O)c1ccc2c(c1)OCO2)Nc1ccccc1F
cell number change: -31.3%
AC50 [1]: 29.1 µM [falling, single point]
AC50 [2]: 29.1 µM [falling, single point]
